Experimental findings from PMC6392109 are described below.

By UniProt entry, the sequences of proteins in these tests, tags left out.
UniProt Q60857: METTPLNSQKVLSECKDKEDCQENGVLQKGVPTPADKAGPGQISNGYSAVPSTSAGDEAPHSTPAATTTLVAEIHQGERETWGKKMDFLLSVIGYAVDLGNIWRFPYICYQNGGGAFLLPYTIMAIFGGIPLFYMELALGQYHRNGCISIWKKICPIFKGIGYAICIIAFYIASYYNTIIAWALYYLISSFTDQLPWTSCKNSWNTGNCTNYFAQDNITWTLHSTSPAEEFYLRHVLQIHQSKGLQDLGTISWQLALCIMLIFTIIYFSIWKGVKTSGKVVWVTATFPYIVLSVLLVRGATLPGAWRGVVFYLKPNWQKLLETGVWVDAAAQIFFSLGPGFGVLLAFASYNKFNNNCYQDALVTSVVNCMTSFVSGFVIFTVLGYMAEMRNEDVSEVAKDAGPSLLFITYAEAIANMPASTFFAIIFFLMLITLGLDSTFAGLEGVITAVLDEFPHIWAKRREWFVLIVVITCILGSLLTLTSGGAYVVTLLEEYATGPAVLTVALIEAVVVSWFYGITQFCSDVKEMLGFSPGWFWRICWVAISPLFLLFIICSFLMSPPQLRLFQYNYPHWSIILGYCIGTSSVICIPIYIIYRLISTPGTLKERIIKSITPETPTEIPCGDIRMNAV

The target in the experiment is serotonin transporter (SERT), endogenous in mouse brain (mouse (endogenous in mouse brain)) (UniProt Q60857). As to the kind of experiment: co-IP; mouse brain lysate; immunoprecipitation with anti-SERT antibody (sc-1458, 1:100), no antibody as negative control; western blot of the eluate for SERT and Flot1; Flot1 KO and SERT-KO tissue as controls. Background: In western blotting, separated proteins are transferred to a membrane and probed.

These are yes or no findings as the source states them, for the method shown. Binding seen in cells or lysates may run through a third protein. Some binding calls cover weakened binding; strength is not graded here.

B1: Flotillin-1 (Flot1), endogenous in mouse brain (protein, UniProt O08917 1-428)
chain: MFFTCGPNEAMVVSGFCRSPPVMVAGGRVFVLPCIQQIQRISLNTLTLNVKSEKVYTRHGVPISVTGIAQVKIQGQNKEMLAAACQMFLGKTEAEIAHIALETLEGHQRAIMAHMTVEEIYKDRQKFSEQVFKVASSDLVNMGISVVSYTLKDIHDDQDYLHSLGKARTAQVQKDARIGEAEAKRDAGIREAKAKQEKVSAQCLSEIEMAKAQRDYELKKATYDIEVNTRRAQADLAYQLQVAKTKQQIEEQRVQVQVVERAQQVAVQEQEIARREKELEARVRKPAEAERYRLERLAEAEKAQLIMQAEAEAESVRMRGEAEAFAIGARARAEAEQMAKKAEAFQMYQEAAQLDMLLEKLPQVAEEISGPLTSANKITLVSSGSGTMGAAKVTGEVLDILSRLPESVERLTGVSISQVNHNKPLRTA
For B1, the binding entry is reported as “binds”.
